This note sets out measurements from PMC3261880.

Results are given in words; binding and its absence hold for the method and conditions named. Binding seen in cells or lysates may run through a third protein. Some results given as binding are weak or reduced against the parent protein; the word gives no strength. Where a sequence is shown, tags or fusion partners need not be part of it.

Assay [1] concerns the target T1, GST-Nrd1 (wild-type Nrd1, RRM-type RNA-binding protein) (S. pombe) (UniProt Q09702).
T1 sequence: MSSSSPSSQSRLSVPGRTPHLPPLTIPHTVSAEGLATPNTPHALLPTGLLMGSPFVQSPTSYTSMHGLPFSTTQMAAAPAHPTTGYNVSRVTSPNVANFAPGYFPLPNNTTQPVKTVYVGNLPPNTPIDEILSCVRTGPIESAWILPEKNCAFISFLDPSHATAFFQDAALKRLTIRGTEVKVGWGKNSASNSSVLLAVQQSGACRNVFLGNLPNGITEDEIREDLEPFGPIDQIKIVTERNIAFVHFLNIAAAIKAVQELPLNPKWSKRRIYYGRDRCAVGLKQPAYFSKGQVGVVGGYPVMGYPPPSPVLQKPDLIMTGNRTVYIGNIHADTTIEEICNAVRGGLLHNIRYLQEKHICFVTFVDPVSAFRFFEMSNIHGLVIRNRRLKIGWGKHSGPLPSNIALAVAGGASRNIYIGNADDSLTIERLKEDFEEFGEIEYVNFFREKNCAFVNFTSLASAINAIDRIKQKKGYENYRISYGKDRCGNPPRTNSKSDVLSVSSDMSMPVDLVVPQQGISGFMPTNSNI
Briefly: pull-down; GST-fused Nrd1 versions co-expressed in S. pombe cells with endogenous Cpc2-GFP; lysates bound to glutathione sepharose, immunoblot with anti-GFP and anti-GST; cells untreated (27°C), heat shock (42°C, 10 min) or 2.0 mM arsenite (120 min). On the technique in general: A western blot detects proteins with antibodies after separation by electrophoresis.

The target of assay [2] is T2, GST-Nrd1^DD (phosphorylation-mimic Nrd1, T40 and T126 replaced with aspartic acid) (S. pombe) (UniProt Q09702).
T2 sequence: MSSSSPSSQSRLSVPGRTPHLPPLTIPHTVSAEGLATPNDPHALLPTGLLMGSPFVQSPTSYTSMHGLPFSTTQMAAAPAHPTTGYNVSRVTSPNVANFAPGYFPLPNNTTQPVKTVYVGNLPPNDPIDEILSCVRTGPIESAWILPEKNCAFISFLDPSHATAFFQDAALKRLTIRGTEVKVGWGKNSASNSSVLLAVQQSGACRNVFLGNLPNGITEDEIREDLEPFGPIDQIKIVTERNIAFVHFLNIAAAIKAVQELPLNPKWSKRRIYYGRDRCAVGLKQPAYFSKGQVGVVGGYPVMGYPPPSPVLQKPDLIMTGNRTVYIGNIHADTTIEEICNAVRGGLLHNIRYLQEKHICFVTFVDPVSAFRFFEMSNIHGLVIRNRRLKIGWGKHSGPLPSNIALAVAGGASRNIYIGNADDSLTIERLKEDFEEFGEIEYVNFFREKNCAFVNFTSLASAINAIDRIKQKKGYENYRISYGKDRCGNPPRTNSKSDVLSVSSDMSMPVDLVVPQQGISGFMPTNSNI
The assay is described as above.

B1: Cpc2-GFP (Cpc2, the RACK1 orthologue in fission yeast) (protein, UniProt Q10281 1-314)
chain: MPEQLVLRATLEGHSGWVTSLSTAPENPDILLSGSRDKSIILWNLVRDDVNYGVAQRRLTGHSHFVSDCALSFDSHYALSASWDKTIRLWDLEKGECTHQFVGHTSDVLSVSISPDNRQVVSGSRDKTIKIWNIIGNCKYTITDGGHSDWVSCVRFSPNPDNLTFVSAGWDKAVKVWDLETFSLRTSHYGHTGYVSAVTISPDGSLCASGGRDGTLMLWDLNESTHLYSLEAKANINALVFSPNRYWLCAATGSSIRIFDLETQEKVDELTVDFVGVGKKSSEPECISLTWSPDGQTLFSGWTDNLIRVWQVTK
With B1, the binding entry in assay [1] and in assay [2] was “binds” in each case.
